The target of assay [1] is T1, LYK2-GFP (Arabidopsis thaliana LysM-containing Receptor-Like Kinase 2, GFP-tagged) (Arabidopsis thaliana) (UniProt Q9SGI7).
T1 sequence: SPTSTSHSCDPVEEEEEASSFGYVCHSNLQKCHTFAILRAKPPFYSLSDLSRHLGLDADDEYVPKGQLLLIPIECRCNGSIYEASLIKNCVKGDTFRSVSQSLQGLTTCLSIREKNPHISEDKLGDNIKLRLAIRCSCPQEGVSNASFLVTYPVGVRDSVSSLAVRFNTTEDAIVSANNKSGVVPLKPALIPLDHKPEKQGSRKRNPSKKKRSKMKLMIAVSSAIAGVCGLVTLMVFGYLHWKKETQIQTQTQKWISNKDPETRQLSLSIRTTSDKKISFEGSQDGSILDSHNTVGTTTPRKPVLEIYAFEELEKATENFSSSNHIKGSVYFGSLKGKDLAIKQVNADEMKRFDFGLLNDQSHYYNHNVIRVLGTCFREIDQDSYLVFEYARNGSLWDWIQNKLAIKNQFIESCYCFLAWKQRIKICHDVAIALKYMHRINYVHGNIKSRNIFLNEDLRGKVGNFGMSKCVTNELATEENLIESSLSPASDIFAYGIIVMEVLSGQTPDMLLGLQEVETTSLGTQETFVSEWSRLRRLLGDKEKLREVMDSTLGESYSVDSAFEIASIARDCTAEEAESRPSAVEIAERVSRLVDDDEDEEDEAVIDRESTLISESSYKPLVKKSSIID
Description: co-IP; LYK2-GFP and LYK5-myc transiently co-expressed in N. benthamiana leaves; lysis in 50 mM Tris pH 7.6, 150 mM NaCl, 0.5% Triton X-100, protease inhibitors; LYK2-GFP immunoprecipitated with anti-GFP beads (Chromotek); immunoblot with anti-GFP and anti-myc; no elicitor treatment. (A western blot detects proteins with antibodies after separation by electrophoresis.)

Assay [2] concerns the target T2, LYK2 fused to a half of YFP for BiFC (LYK2-NYFP; LYK2-CYFP) (Arabidopsis thaliana) (UniProt Q9SGI7).
T2 sequence: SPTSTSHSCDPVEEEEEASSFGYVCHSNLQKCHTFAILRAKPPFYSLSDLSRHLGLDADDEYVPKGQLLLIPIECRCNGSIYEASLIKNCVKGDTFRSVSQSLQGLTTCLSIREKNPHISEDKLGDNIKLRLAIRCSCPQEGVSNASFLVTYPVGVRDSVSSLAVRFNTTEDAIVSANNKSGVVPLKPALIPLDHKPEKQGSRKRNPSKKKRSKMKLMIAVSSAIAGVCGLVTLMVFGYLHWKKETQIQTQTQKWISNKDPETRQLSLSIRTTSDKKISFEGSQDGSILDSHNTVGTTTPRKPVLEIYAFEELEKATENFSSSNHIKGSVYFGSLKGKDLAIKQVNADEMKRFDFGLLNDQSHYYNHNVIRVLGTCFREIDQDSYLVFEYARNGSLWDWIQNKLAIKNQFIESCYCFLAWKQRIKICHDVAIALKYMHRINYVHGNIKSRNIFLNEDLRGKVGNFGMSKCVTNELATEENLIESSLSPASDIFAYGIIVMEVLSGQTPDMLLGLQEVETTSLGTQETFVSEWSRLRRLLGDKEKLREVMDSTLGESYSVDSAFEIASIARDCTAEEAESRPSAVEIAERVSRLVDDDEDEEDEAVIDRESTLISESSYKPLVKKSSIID
Nature of the assay: split reporter; BiFC with N- and C-terminal halves of YFP; fusions transiently co-expressed in N. tabacum leaves by Agrobacterium infiltration; confocal imaging 48 hr after infiltration.

For assay [3], the target named is LYK5 fused to a half of YFP for BiFC (LYK5-NYFP; LYK5-CYFP) (Arabidopsis thaliana) (UniProt O22808). The description is as above.

These are yes or no findings as the source states them, for the method shown. In cells and extracts the contact can be indirect. Some entries that bind do so weakly or less than the wild type. Sequences can lack the tags named with a protein.

B1: LYK5-myc (Arabidopsis thaliana LYK5, myc-tagged) (receptor, UniProt O22808 27-664)
chain: QQPYVNNHQLACEVRVYDNITNGFTCNGPPSCRSYLTFWSQPPYNTADSIAKLLNVSAAEIQSINNLPTATTRIPTRELVVIPANCSCSSSSGGFYQHNATYNLSGNRGDETYFSVANDTYQALSTCQAMMSQNRYGERQLTPGLNLLVPLRCACPTAKQTTAGFKYLLTYLVAMGDSISGIAEMFNSTSAAITEGNELTSDNIFFFTPVLVPLTTEPTKIVISPSPPPPPVVATPPQTPVDPPGSSSSHKWIYIGIGIGAGLLLLLSILALCFYKRRSKKKSLPSSLPEENKLFDSSTKQSIPTTTTTQWSIDLSNSSEAFGLKSAIESLTLYRFNDLQSATSNFSDENRIKGSVYRATINGDDAAVKVIKGDVSSSEINLLKKLNHSNIIRLSGFCIREGTSYLVFEYSENGSISDWLHSSGKKSLTWKQRVEIARDVAEALDYLHNYITPPHIHKNLESTNILLDSNFRAKIANFGVARILDEGDLDLQLTRHVEGTQGYLAPEYVENGVITSKLDVFAFGVAVLELLSGREAVTIHKKKEGEEEVEMLCKVINSVLGGENVREKLKEFMDPSLGNEYPLELAYTMAQLAKSCVATDLNSRPSVTQVLTTLSMIVSSSIDWEPSDDLLRSGSLGN
As for B1, the binding entry in assay [1] is “binds”.

B2: LYK5 fused to a half of YFP for BiFC (LYK5-NYFP; LYK5-CYFP) (receptor, UniProt O22808 27-664)
chain: QQPYVNNHQLACEVRVYDNITNGFTCNGPPSCRSYLTFWSQPPYNTADSIAKLLNVSAAEIQSINNLPTATTRIPTRELVVIPANCSCSSSSGGFYQHNATYNLSGNRGDETYFSVANDTYQALSTCQAMMSQNRYGERQLTPGLNLLVPLRCACPTAKQTTAGFKYLLTYLVAMGDSISGIAEMFNSTSAAITEGNELTSDNIFFFTPVLVPLTTEPTKIVISPSPPPPPVVATPPQTPVDPPGSSSSHKWIYIGIGIGAGLLLLLSILALCFYKRRSKKKSLPSSLPEENKLFDSSTKQSIPTTTTTQWSIDLSNSSEAFGLKSAIESLTLYRFNDLQSATSNFSDENRIKGSVYRATINGDDAAVKVIKGDVSSSEINLLKKLNHSNIIRLSGFCIREGTSYLVFEYSENGSISDWLHSSGKKSLTWKQRVEIARDVAEALDYLHNYITPPHIHKNLESTNILLDSNFRAKIANFGVARILDEGDLDLQLTRHVEGTQGYLAPEYVENGVITSKLDVFAFGVAVLELLSGREAVTIHKKKEGEEEVEMLCKVINSVLGGENVREKLKEFMDPSLGNEYPLELAYTMAQLAKSCVATDLNSRPSVTQVLTTLSMIVSSSIDWEPSDDLLRSGSLGN
In the case of B2, the binding result in assay [2] and in assay [3] was “binds” each time.

B3: LYK2 fused to a half of YFP for BiFC (LYK2-NYFP; LYK2-CYFP) (receptor, UniProt Q9SGI7 26-654)
chain: SPTSTSHSCDPVEEEEEASSFGYVCHSNLQKCHTFAILRAKPPFYSLSDLSRHLGLDADDEYVPKGQLLLIPIECRCNGSIYEASLIKNCVKGDTFRSVSQSLQGLTTCLSIREKNPHISEDKLGDNIKLRLAIRCSCPQEGVSNASFLVTYPVGVRDSVSSLAVRFNTTEDAIVSANNKSGVVPLKPALIPLDHKPEKQGSRKRNPSKKKRSKMKLMIAVSSAIAGVCGLVTLMVFGYLHWKKETQIQTQTQKWISNKDPETRQLSLSIRTTSDKKISFEGSQDGSILDSHNTVGTTTPRKPVLEIYAFEELEKATENFSSSNHIKGSVYFGSLKGKDLAIKQVNADEMKRFDFGLLNDQSHYYNHNVIRVLGTCFREIDQDSYLVFEYARNGSLWDWIQNKLAIKNQFIESCYCFLAWKQRIKICHDVAIALKYMHRINYVHGNIKSRNIFLNEDLRGKVGNFGMSKCVTNELATEENLIESSLSPASDIFAYGIIVMEVLSGQTPDMLLGLQEVETTSLGTQETFVSEWSRLRRLLGDKEKLREVMDSTLGESYSVDSAFEIASIARDCTAEEAESRPSAVEIAERVSRLVDDDEDEEDEAVIDRESTLISESSYKPLVKKSSIID
As to B3, the binding entry in assay [2] is “no binding”.

The record behind these values is paper PMC9293440.
